According to patent EP4703385A1 (Fortvita Biologics Inc., dated 2026):
No constants are given. Whether binding was seen depends on the method and setting. Some entries that bind do so weakly or less than the wild type.

Amino acid sequences for entries named in this document (tags omitted). Residues count along the entry.
UniProt P29965, residues 108-261: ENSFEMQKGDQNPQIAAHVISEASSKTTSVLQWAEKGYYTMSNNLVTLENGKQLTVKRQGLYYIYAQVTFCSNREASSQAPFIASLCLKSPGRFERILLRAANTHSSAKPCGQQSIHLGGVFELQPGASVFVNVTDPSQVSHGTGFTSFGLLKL

What was measured:
[1] = target: Human CD40 Ligand/TNFSF5 Protein, His, Flag Tag, active trimer (MALS verified) (human) (UniProt P29965); test: screening by ELISA and luciferase assays after humanization
[2] = target: Human CD40 Ligand/TNFSF5 Protein, His, Flag Tag, active trimer (MALS verified) (human) (UniProt P29965); test: competition ELISA: CD40L coated, antibody titrated from 20 ug/mL against biotinylated CD40-Fc (2 ug/mL working solution)

binding [1] | binding [2] | Binder
binds | binds | Hz33B9C5 (antibody, human IgG1, kappa, L234A L235A, V domains shown, Expressed in ExpiCHO cells; also called Antibody Hz33B9C5; humanized anti-CD40L antibody Hz33B9C5) VH: QVQLVESGGGLVKPGGSLRLSCAASGFTFSDYYMYWIRQAPGKGLEWVSTISGGGTYTYSPDSVKGRFTISRDNAKNSLYLQMNSLRAEDTAVYYCARGEPGLAYWGQGTLVTVSS VL: DIVMTQSPDSLAVSLGERATINCKASQSVDYYGDSYMHWYQQKPGQPPKLLIYASSNLESGVPDRFSGSGSGTDFTLTISSLQAEDVAVYYCQQSHEDPWTFGGGTKVEIKR
binds | binds | Hz47E2 (antibody, human IgG1, kappa, L234A L235A, V domains shown, Expressed in ExpiCHO cells; also called Antibody Hz47E2; humanized anti-CD40L antibody Hz47E2) VH: EVQLVESGGGLVKPGGSLRLSCAASGFTFSDYAMSWVRQAPGKGLEWVSEISTVHTYTYYSDAVAGRFTISRDNAKNSLYLQMNSLRAEDTAVYYCARDRVLDYWGQGTLVTVSS VL: DIVMTQSPDSLAVSLGERATINCRASESVEYYDTSLMQWYQQKPGQPPKLLIYAASNLESGVPDRFSGSGSGTDFTLTISSLQAEDVAVYYCQQTKKLPWTFGQGTKVEIKR
